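Luminescence from an EWS-FLI1 target-promoter (NR0B1) reporter, set against a CMV-promoter reporter, two days after silencing single genes in TC32 Ewing sarcoma cells.
Each siRNA was applied at 20 nM.
A z-score of the log NR0B1-over-CMV signal, less the median of siRNAs with the same seed; more negative means a stronger specific loss of the NR0B1 reporter.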

The strongest results of the screen are mostly left out here.
Sequences are the guide (antisense) strand, without overhang.

siRNA | gene | seed-corrected z-score
ACAAUGUUUAGUUAUUCUC | MBNL2 | 0.07345
UUGACUGUUAGUGACGACG | FCGRT | -0.649
UUCCCGAACGUAAUCAGCC | MYL2 | -0.2785
AAGAUAACCAGCACGGUUG | GPR101 | -0.5109
UCCAGAAUCACGUAGCGGU | DCAKD | 0.1999
UUAGUGAAAAUGCACGCUG | AKAP11 | -0.003932
UUAAUGGUUUCAUAACACG | GDI2 | 0.6488
UAAUCUGACAUGAUAAGUG | DEFB109P1B | -0.3721
UCAAGUAGCACAUCCGACG | COPG1 | -1.942
UUUGAGUCCAGUCAUCUUC | CTSK | -0.213
AAAAUUACAGGCAGGAUGG | OR51B2 | 0.7494
AUCUGUAAAGUGGUACUGG | GPC4 | -0.1826
UUUGGACCAACUUUGAUCU | MASP1 | 0.4388
UUCCCGAUCAUGGUGUACG | KIF26A | -0.1701
UAUUAGGUAACUUGUACCC | TDRD6 | -0.2553
UGAGGUACAACAGCUGUGU | MAP4 | -0.1375
UGACUGGUAGAGUAGAUAU | C9orf91 | -1.316
AAACUUGUUAUCUACUUGC | MLH3 | 0.3165
UCCUUGAACACUGCCACGC | PRSS56 | 1.831
AAGGGUCAUGGAGGGAACC | C11orf53 | -0.208
AUCCGUCCCAGCAAGUACC | PCSK1N | 0.9418
UAUUCGGCCACUACUCUGG | MRPL43 | 0.1799
UUCUGGUGCAGAAUGUACU | NOSIP | -0.5378
UUCGGUUUCACAGACUGGG | KDM6B | -0.6794
UUCUUCACAAACGUAGGGC | ZNF93 | 0.04296
UUCUCGUUAUGGUGGUUUC | FABP12 | -0.3192
AAAUGUUCCACAAUAGGAG | PNO1 | 0.7864
UAGCGAAAGGUGUAGAAGG | MMP11 | -0.3944
AUCUCUAUAGCCGCUUUCC | C4orf22 | -0.4286
UAAAAGACACGUUCUAGUU | LYPLAL1-AS1 | 1.24
UGCAGUAUCAGAGAGUCGG | UNC5C | 0.3878
UUGCUCAUCAGGUAGGUUU | CHAT | -0.4932
UUUAUGUACUUGUUGUUCC | TAS2R42 | 0.09217
UUCACUUUCGUUGUAGGCC | CAMKK1 | -0.711
UACAGUGAUCUUAUUGUUU | LDHB | 0.317
UCUCUUUCACUUUACGGCC | CITED4 | 1.592
UCUUUGAUGGGUCAAAGUC | CCDC94 | 0.08463
UAAUAUUCCUCCGAAAAAC | TM4SF4 | 0.4915
UAGGUAUUUAGGCAUGAAG | SLCO1A2 | -0.5555
AAAAUCAUAACAGCUAGUU | CHCHD2P9 | 0.1696
UUGUUGUACACGUUAAACC | PCBD1 | -0.7456
UCUCCUGUUACCACAUUCC | GMPR2 | 0.06835
UGAAGUUCAGGGUAUCAUC | SEMA6A | 0.2168
UUCGGACAUUUGUAGAUCC | PROSC | 0.4017
UAUCAGAUUAGAUUGAACC | PROK1 | 0.1833
UGAAGUAUCGGAGCUGACU | CAPN10 | -0.8289
AAACGUACCAUCCGAUCUC | CCBL2 | -0.178
UCAGAUAAUCGUAAUCUUG | CDH3 | 0.1916
UGAUAGUAGCUGAAGGUCC | YIPF2 | -0.2792
UUUGCUGCAAAGCCCAUGU | CHMP4C | -0.9291
UUUUAGUGCUGCUUCCUCC | RPS27 | 1.288
UUUGAUAUUCAUGGAGUCC | UXT | 0.04676
UUCGUUACAUAGACACUUG | FBN2 | 0.1441
UCACAUUCCUCUGGGUUCC | HTR3E | 0.05113
UUCAAUACUAAAUCGAUCC | MYOM2 | -0.8246
AAGGUUCACACUGUUGCCC | DACT1 | -1.193
AUAUUUCGUCCUAUUGUUG | MTCH2 | -0.08234
UUCAGGAACGUGAUCUCCC | COMP | -0.1213
UAUGAGACCCAGCAAAUUC | GRP | 0.6659
UCACGCAUCAGCUUCACGG | ATP1A3 | 0.3007
UUAGGUCGUACACGCGUCC | CYB5D1 | -1.622
AAUUCUAUUGGGUCCUUUG | GUCY2F | 0.001573
UAAGUUUUUAGUUACCUUU | SMIM10 | 1.198
AUUCUGACCAGAUCCGUGG | PHYH | -0.9844
UCCAGUAGUAAAUCCAGCC | SLC38A9 | -1.202
UAAGUAGUGACGUGACUUC | ZNF644 | 0.2957
UAUUGGAGAGGGUCGCAGC | TEKT4P2 | -0.1265
UCCGCGAUCAUGGUAUCUC | IL32 | 0.71
AGAAGUAAAAGCCUCACAC | LRTM1 | 1.184

9 of the entries, repeated:

For AUUCUGACCAGAUCCGUGG against PHYH the result was seed-corrected z-score -0.9844.
For UGAUAGUAGCUGAAGGUCC against YIPF2 the result was seed-corrected z-score -0.2792.
For UAAGUAGUGACGUGACUUC against ZNF644 the result was seed-corrected z-score 0.2957.
For UUCUGGUGCAGAAUGUACU against NOSIP the result was seed-corrected z-score -0.5378.
For UAUUAGGUAACUUGUACCC against TDRD6 the result was seed-corrected z-score -0.2553.
For AAGGGUCAUGGAGGGAACC against C11orf53 the result was seed-corrected z-score -0.208.
For UCACAUUCCUCUGGGUUCC against HTR3E the result was seed-corrected z-score 0.05113.
For AAGAUAACCAGCACGGUUG against GPR101 the result was seed-corrected z-score -0.5109.
For AUCCGUCCCAGCAAGUACC against PCSK1N the result was seed-corrected z-score 0.9418.

Source: PubChem BioAssay AID1159506 (NCATS, 2015).